Experimental data as given in PubChem BioAssay AID602 (SRMLSC, 2007).
Some of the results follow.

Assay: MRP1 drug-resistance reversers in H69AR cells – cell-based, doxorubicin co-treatment, primary screen (AID 602)
Settings: CellTiter-Glo, 72 h, at 10 µM
[1] = H69AR cells + 2 uM doxorubicin, measured here: viability with 2 uM doxorubicin, stronger effect = lower value
[2] = H69AR cells, measured here: cytotoxicity without doxorubicin

Compound | viability [1] [%] | viability [2] [%]
O=C(OC1CN2CCC1CC2)C12CC3CC(CC(C3)C1)C2 (stereo unspecified) | 73.2 | 96.3
COc1ccc(OP(C)(=O)Nc2cccc(F)c2)cc1 (stereo unspecified) | 88.4 | 96.7
Cc1ccc(NP(C)(=O)Oc2ccccc2)c(C)c1 (stereo unspecified) | 81 | 101
COc1ccccc1OP(C)(=O)Nc1ccc(C)cc1 (stereo unspecified) | 92.5 | 82.8
ClCCSc1nnc(-c2cccnc2)o1 | 87.6 | 93.1
CP(=S)(Nn1cnnc1)Oc1ccccc1 (stereo unspecified) | 93.5 | 86.1
CP(=O)(Nc1ccccn1)Oc1ccc(Cl)cc1 (stereo unspecified) | 97 | 101
CCC(C)N(CC(C)C)C(=S)SC(NC(C)=O)C(Cl)(Cl)Cl (stereo unspecified) | 82.9 | 70.8
CCOP(C)(=S)SCC(=O)NC(C)C(=O)O (stereo unspecified) | 85.2 | 91.7
CP(=O)(NC(=O)Nc1ccccc1)Oc1ccccc1 (stereo unspecified) | 92.9 | 96.7
O=C(COc1ccccc1)OC1CN2CCC1CC2 (stereo unspecified) | 108 | 104
COP1(=S)c2c(C)nn(CCC#N)c2N=C(c2ccc(F)cc2)N1C (stereo unspecified) | 82.8 | 62
Cc1nc2ccc3ccccc3c2s1.O=[N+]([O-])c1cc([N+](=O)[O-])c(O)c([N+](=O)[O-])c1 | 92.8 | 87.2
CC1(CBr)Cn2c(nc3ccccc3c2=O)S1 (stereo unspecified) | 81.1 | 87.7
Clc1n[nH]nc1-c1nn[nH][15n]1 | 100 | 105
O=P1(Nc2ccccn2)COc2ccccc2OC1 | 83.3 | 69.6
O=P1(Nc2ccc(Br)cn2)COc2ccccc2OC1 | 91 | 98.3
Cc1ccc(OCC(=O)OC2CN3CCC2CC3)cc1 (stereo unspecified) | 99.1 | 94.1
O=P1(Nc2ncccn2)COc2ccccc2OC1 | 105 | 94.2
COc1ccccc1OP(C)(=O)Nc1c(C)cccc1C (stereo unspecified) | 94.6 | 96.5

Compound | viability [1] [%] | viability [2] [%]
Cc1nn(-c2ccccc2)c2c1P(=O)(N1CCOCC1)N(C)C(c1ccccc1)=N2 (stereo unspecified) | 78.4 | 87.8
CCOP1(=S)c2c(C)nn(CCC#N)c2N=C(c2ccc(F)cc2)N1C (stereo unspecified) | 66.9 | 66.7
CCOP1(=S)c2c(C)nn(CCC#N)c2N=C(c2ccccc2F)N1C (stereo unspecified) | 70.4 | 68.9
Cc1ccc(C)c(NP(C)(=O)Oc2ccccc2)c1 (stereo unspecified) | 102 | 97.1
Cc1cc(C)cc(OP(C)(=O)Nc2ccccn2)c1 (stereo unspecified) | 108 | 100
Cc1cc(C)cc(OP(C)(=O)Nc2ccc(C)cc2C)c1 (stereo unspecified) | 82.7 | 95.5
Cc1cccc(OCC(=O)OC2CN3CCC2CC3)c1 (stereo unspecified) | 95.3 | 95.3
CP(=O)(Nc1ccccc1F)Oc1ccccc1 (stereo unspecified) | 89.7 | 93.2
O=P1(Nc2nc3ccc(Cl)cc3s2)COc2ccccc2O1 (stereo unspecified) | 89.8 | 103
CP(=O)(Nc1ccccc1)Oc1ccc(F)cc1 (stereo unspecified) | 101 | 96.8
COC(=O)c1cc2c(s1)N=C(c1ccccc1)N(C)P2(=O)N1CCOCC1 (stereo unspecified) | 86.9 | 85.2
CCN(CC)CCCOC(=O)C(O)(c1ccccc1)C1CCCCC1 (stereo unspecified) | 96.4 | 83.8
O=C(OC1CN2CCC1CC2)c1cccc(Cl)c1 (stereo unspecified) | 103 | 95.6
CN(C)CCOC(=O)C(O)(c1ccccc1)C1CCCCC1 (stereo unspecified) | 88.1 | 98
Cc1ccccc1NP(C)(=O)Nc1ccccc1C | 104 | 90.5
CP(=O)(Nc1ccc2c(c1)OCCO2)Oc1ccccc1 (stereo unspecified) | 93.5 | 95
c1nnnn1CCn1cnnn1 | 90.5 | 89.2
O=P(Nc1nccs1)(c1ccccc1)c1ccccc1 | 88.1 | 88.4
CC1CCN(C(=O)Oc2c(Cl)cc(Cl)c3cccnc23)CC1 | 60.3 | 83.9
CC(C)(C)c1ccc(OP(C)(=O)O)cc1 | 103 | 101

Compound | viability [1] [%] | viability [2] [%]
CP(=O)(Nc1ccc(Cl)cc1)Oc1ccc(F)cc1 (stereo unspecified) | 99.5 | 106
COc1ccccc1OP(C)(=O)Nc1c(C)n(C)n(-c2ccccc2)c1=O (stereo unspecified) | 85.9 | 91.3
O=[N+]([O-])c1cccc2n[nH]nc12 | 93 | 97.6
CCc1nc2c(n1)c1c(non1O)c1c2no[n+]1[O-] | 0.97 | 2.17
CP(=O)(Oc1ccccc1)N1CCOC1=O (stereo unspecified) | 97.6 | 104
CP(=O)(OC12CC3CC(CC(C3)C1)C2)OC12CC3CC(CC(C3)C1)C2 | 70.5 | 96.6
Cc1nc2ccc3ccccc3c2o1.O=[N+]([O-])c1cc([N+](=O)[O-])c(O)c([N+](=O)[O-])c1 | 92.6 | 100
COc1ccccc1OP(C)(=O)Nc1ccc(C)c(C)c1 (stereo unspecified) | 85.1 | 89.9
CCOP(=O)(Nc1ccccc1)OCC | 96.7 | 94.6
COc1ccccc1OP(C)(=O)Nc1ccc(C)cc1C (stereo unspecified) | 75.2 | 78.8
CP(=O)(Nc1ccccn1)Oc1ccccc1 (stereo unspecified) | 103 | 89.9
CCc1ccc(OP(C)(=O)O)cc1 | 109 | 93.6
Cc1c(NP(C)(=O)Oc2ccc(C(C)C)cc2)c(=O)n(-c2ccccc2)n1C (stereo unspecified) | 105 | 89.4
Cc1c2non([O-])c-2c(C)[n+](=O)[n+]1[O-] | 0.79 | 0.46
Oc1ccccc1CNc1ccccn1 | 97.1 | 98.8
COc1ccc(OP(C)(=O)Nc2ccccn2)cc1 (stereo unspecified) | 104 | 97.3
CN(C)CCOC(=O)C(O)(c1ccccc1)C1CCCC1 (stereo unspecified) | 83.1 | 104
CN1CCCC(OC(=O)C(c2ccccc2)c2ccccc2)C1 (stereo unspecified) | 85 | 79.2
